Data from patent US20120009124A1, “USE OF BUFFERS FOR RADIONUCLIDE COMPLEXATION” (GUERBET, priority 2009, published 2012).

Assay: Compared complexation with the buffers (chelate + 69GaCl3 in 0.1M buffer pH4, ambient temperature, LC/MS)
Details: 69GaCl3 1.5 eq, AT

Compound | time to complete complexation (chelate NOTA) | time to complete complexation (chelate PCTA) | Results (complexation of gallium by the chelate) (chelate NOTA) | Results (complexation of gallium by the chelate) (chelate PCTA)
O=C1O[C@H]([C@@H](O)CO)C(O)=C1O [ascorbate] | < 15 min | < 15 min | – | –
O=C(O)O [carbonate] | < 15 min | < 15 min | – | –
CC(O)C(=O)O (stereo not shown) [lactate] | < 15 min | < 15 min | – | –
phosphate | < 15 min | – | Complete complexation | –
O=C(O)C(O)C(O)C(=O)O (stereo not shown) [tartrate] | < 15 min | – | – | –
citrate [reference compound] | – | – | A large amount of ligand, a small amount of complex | A large amount of ligand; a small amount of complex
O=C(O)CCC(=O)O [succinate] | < 15 min | – | – | –
O=C(O)/C=C\C(=O)O [maleate] | < 15 min | – | – | –
